These results are taken from patent publication US20250320206A1, “STAT6 DEGRADERS” (Gilead Sciences, Inc., priority 2024, published 2025).

Amino acid sequences for entries named in this document (tags omitted).
UniProt P42226, whole entry: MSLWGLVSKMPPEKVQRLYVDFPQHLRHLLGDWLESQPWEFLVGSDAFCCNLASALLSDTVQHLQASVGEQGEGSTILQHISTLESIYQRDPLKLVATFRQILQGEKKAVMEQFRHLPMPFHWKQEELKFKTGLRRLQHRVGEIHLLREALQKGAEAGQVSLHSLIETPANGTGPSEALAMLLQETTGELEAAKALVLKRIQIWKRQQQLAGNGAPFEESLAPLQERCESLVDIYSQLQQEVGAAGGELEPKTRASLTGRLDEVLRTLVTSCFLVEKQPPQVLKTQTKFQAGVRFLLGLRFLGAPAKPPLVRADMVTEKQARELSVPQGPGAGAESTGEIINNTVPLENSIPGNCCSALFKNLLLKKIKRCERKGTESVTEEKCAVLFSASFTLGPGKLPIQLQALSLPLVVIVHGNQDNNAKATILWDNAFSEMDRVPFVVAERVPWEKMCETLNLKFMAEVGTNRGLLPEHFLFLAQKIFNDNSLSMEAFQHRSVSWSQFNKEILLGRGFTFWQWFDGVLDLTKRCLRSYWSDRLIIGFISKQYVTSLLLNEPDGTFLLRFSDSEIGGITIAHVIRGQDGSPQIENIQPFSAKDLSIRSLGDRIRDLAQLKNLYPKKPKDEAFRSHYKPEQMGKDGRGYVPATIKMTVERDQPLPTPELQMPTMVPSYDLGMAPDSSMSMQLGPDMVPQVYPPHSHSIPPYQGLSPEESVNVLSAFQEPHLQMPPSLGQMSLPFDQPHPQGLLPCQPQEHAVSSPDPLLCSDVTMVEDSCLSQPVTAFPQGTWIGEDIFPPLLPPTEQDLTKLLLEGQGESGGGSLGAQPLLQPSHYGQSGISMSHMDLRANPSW

The structures given here were assigned with low confidence; some may be wrong.

This assay concerns the target STAT6 (Homo sapiens, UniProt P42226). In words: Stat6 Degrader Assay (HiBiT based, HeLa LgBiT clone 4.14). The note with it: read-out: STAT6 degradation DC50; HeLa LgBiT clone 4.14 HiBiT-STAT6, 4-24 h incubation; values given for compounds with >80% Emax; geometric mean. The protocol:
This was a HiBit based assay. A HeLa cell line stably transfected with a small protein, LgBit (Large Bit) was obtained from Promega. These cells express endogenous STAT6. A small 11 amino acid gene sequence (HiBiT) was inserted in the STAT6 gene using CRISPR technology. Once STAT6 protein is expressed in the cells, the HiBiT sequence will bind the LgBit in the cells resulting in a functional NanoBiT protein, giving a luminescent tag to STAT6, see FIG. 2.
Single cell clones were prepared and the clone 4.14 was selected for the assay based on that clone showing high luminescence, high STAT6 phosphorylation upon stimulation with IL-4, and inhibition of luminescence when cells were treated with STAT6 siRNA.
HeLa LgBiT clone 4.14 cells were suspended in DMEM with 10% FCS, 1% Pen/Strep, Na-pyrovate and Hygromycin B, at a concentration of 1.25*105 cells pr mL. 5000 cells were added pr well of a 384 well plate and 20 nL of compound was added by Echo® liquid handler. NN6394A (terfenadine, a toxic compound) was added to control wells at 50 μM concentration to establish the assay window. In these wells the cells are dead which equals 100% degradation of STAT6. […]
The luminescence in the wells as a measure of non-degraded STAT6 was measured in a plate reader (BMG Pherastar FSX). […]

On to `Cc1cc(C(=O)N2CCC(CN3CCN(Cc4ccc5c(c4)C(C)(C)C(=O)N5C4CCC(=O)NC4=O)C[C@@H]3C)CC2)cc(F)c1C1=CCN([C@@H](C)c2cc3c(-n4ccc5c(c4=O)CCN5)ccnc3n2C)CC1` (stereo partly shown), for which the DC50 came out at 1.4 nM.

A word on the DC50: it is the concentration giving 50% degradation.
